## Small-molecule microarray binding calls

Calls as published in the ROBIN set (doi:10.1002/anie.202211358).

Targets (5′ to 3′):
T1: SAM-II riboswitch RNA pseudoknot, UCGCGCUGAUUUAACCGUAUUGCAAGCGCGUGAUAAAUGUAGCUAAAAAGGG. Hit rate about 1% of about 21,000 compounds.
T2: PreQ1 riboswitch RNA pseudoknot, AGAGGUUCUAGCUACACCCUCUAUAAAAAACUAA. From B. subtilis. Hit rate about 0.7% of about 24,000 compounds.
T3: TPP riboswitch RNA three-way junction, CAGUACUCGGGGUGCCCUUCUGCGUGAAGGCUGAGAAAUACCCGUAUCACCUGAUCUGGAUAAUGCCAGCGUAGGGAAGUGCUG. Hit rate about 0.7% of about 24,000 compounds.

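Each compound is printed as two spots on a slide made to bind it covalently, so it has no test concentration; the read-out is fluorescence of the bound, labelled oligonucleotide. The data file lists only calls. An earlier report of the laboratory on the PreQ1, TPP and SAM-II riboswitches (doi:10.1038/s41467-019-09493-3) used 1 µM RNA for 2 h and required a mean Z-score above 3 (spot signal-to-noise against the whole library), a score well above that on a control array, and duplicate spots agreeing (coefficient of variation under 100); it then also set aside compounds that hit other targets, which this list keeps. The cut-offs behind this list may differ. These are primary screening calls, not affinities; a compound without a hit may have attached poorly or may still bind in solution.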 Key: hit = hit, no hit = tested without a hit. This is an unselected part of the compounds tested. A target missing from an entry has no call listed here.

Calls for COCCNc1nc2c(c(=O)n(C)c(=O)n2C)n1Cc1ccc(OC)cc1 are T1: no hit; T2: no hit; T3: no hit.
Calls for COC(=O)[C@H]1C[C@@H](O)CCN1S(=O)(=O)c1cc(Cl)ccc1OC are T1: no hit; T2: no hit; T3: no hit.
Calls for c1csc(CNc2ccc(-c3nc4ccccc4s3)cc2)c1 are T1: no hit; T2: no hit; T3: no hit.
Calls for COc1ccc(Nc2oc(C=Cc3ccccc3OC)nc2C#N)cc1 are T2: no hit; T3: no hit.
Calls for N#Cc1ccc(C(=O)N[C@H]2CN[C@H](C(=O)NCCCc3ccccc3)C2)cc1 are T1: no hit; T2: no hit; T3: no hit.
Calls for CCCc1c(C)nc2ncnn2c1Nc1ccccc1 are T1: no hit; T2: no hit; T3: no hit.
Calls for COc1ccc(C(=O)CCNc2ccc(-c3nncn3C)cc2)cc1OC are T1: no hit; T2: no hit; T3: no hit.
Calls for O[C@@H]1CN(Cc2ccncc2F)CC[C@H]1c1ccc2ccccc2c1 are T1: no hit; T2: no hit; T3: no hit.
Calls for C=CCNc1cc(C)nc2nc(-c3cccnc3)nn12 are T2: no hit; T3: no hit.
Calls for O=C(CN1C(=O)C2(CCCC2)NC[C@H]1c1cc(F)cc(F)c1)Nc1ccc2c(c1)C[C@@]1(C2)C(=O)Nc2ncccc21 are T1: no hit; T2: no hit; T3: no hit.
Calls for O=C(CCc1nc2ccccc2nc1O)N1CC(O)CO1 (stereo not shown) are T1: no hit; T2: no hit; T3: no hit.
Calls for O=C(c1ccccc1-n1cncn1)N1C[C@@H]2CNC[C@]2(C(=O)O)C1 are T1: no hit; T2: no hit; T3: no hit.
Calls for OCCCNc1ncnc2c1C(c1ccccc1Cl)c1ccc(O)cc1O2 (stereo not shown) are T1: no hit; T2: no hit; T3: no hit.
Calls for N[C@@H](Cc1ccccc1)c1nnc(SCc2ccccc2F)o1 are T1: no hit; T2: no hit; T3: no hit.
Calls for Nc1c(C(=O)Nc2cccc(C(F)(F)F)c2)sc2ncccc12 are T1: no hit; T2: no hit; T3: no hit.
Calls for CC(=O)c1cccc(-n2cnnc2C(O)c2ccccc2)c1 (stereo not shown) are T1: no hit; T2: no hit; T3: no hit.
Calls for Cc1ccc(NCc2ccc3c(c2)n(C)c(=O)n3C)cc1C are T2: no hit; T3: no hit.
Calls for CCCOC(=O)c1cccc(Nc2nc(C(=O)OCC)nc3ccccc23)c1 are T1: no hit; T2: no hit; T3: no hit.
Calls for Cc1ncc2c(c1CNC(=O)C1CC(C(C)C)=NO1)CCNC2 (stereo not shown) are T1: no hit; T2: no hit; T3: no hit.
Calls for CCOC(=O)c1ccc(Nc2nc3nonc3nc2N(CC)CC)cc1 are T1: no hit; T2: no hit; T3: no hit.
Calls for CCc1c(C)nc2ncnn2c1Nc1ccc(N2CCN(S(C)(=O)=O)CC2)cc1 are T1: no hit; T2: no hit; T3: no hit.
Calls for Cc1oc(=O)oc1CN1CCN(c2cc3c(cc2F)c(=O)c(C(=O)O)c2n3C(C)S2)CC1 (stereo not shown) are T1: no hit; T2: no hit; T3: no hit.
Calls for CN(C)c1ncnc2c1ncn2-c1ccccc1 are T1: no hit; T2: no hit; T3: no hit.
Calls for CCOc1ccc(NC(=O)c2sc3nc4c(cc3c2N)CCCCC4)cc1 are T1: no hit; T2: no hit; T3: no hit.
Calls for Clc1ccc2nc(-c3cccnc3)c(Nc3ccccc3)n2c1 are T1: no hit; T2: no hit; T3: no hit.
Calls for O=C(Cn1cc(Cl)cn1)N[C@@H]1CCNC[C@H]1O are T1: no hit; T2: no hit; T3: no hit.
Calls for COc1ccc(CN[C@H]2CS(=O)(=O)C[C@@H]2S(=O)(=O)c2ccc(Cl)cc2)cc1OC are T2: no hit; T3: no hit.
Calls for CC(C)(C)c1ccc(OCC(O)CSCc2ccc(Cl)cc2)cc1 (stereo not shown) are T1: no hit; T2: no hit; T3: no hit.

Some entries from above, unchanged:

* c1csc(CNc2ccc(-c3nc4ccccc4s3)cc2)c1 : T1: no hit; T2: no hit; T3: no hit
* O[C@@H]1CN(Cc2ccncc2F)CC[C@H]1c1ccc2ccccc2c1 : T1: no hit; T2: no hit; T3: no hit
* O=C(Cn1cc(Cl)cn1)N[C@@H]1CCNC[C@H]1O : T1: no hit; T2: no hit; T3: no hit